Results from patent US20180208642A1.
No constants are given. Whether binding was seen depends on the method and setting. Some entries that bind do so weakly or less than the wild type.

The chains behind the UniProt entries cited, without tags or fusion partners. Where a name states a change or a piece, a line headed by the entry shows the natural chain unless it says otherwise. Residues count along the entry.
UniProt P17948, residues 27-687: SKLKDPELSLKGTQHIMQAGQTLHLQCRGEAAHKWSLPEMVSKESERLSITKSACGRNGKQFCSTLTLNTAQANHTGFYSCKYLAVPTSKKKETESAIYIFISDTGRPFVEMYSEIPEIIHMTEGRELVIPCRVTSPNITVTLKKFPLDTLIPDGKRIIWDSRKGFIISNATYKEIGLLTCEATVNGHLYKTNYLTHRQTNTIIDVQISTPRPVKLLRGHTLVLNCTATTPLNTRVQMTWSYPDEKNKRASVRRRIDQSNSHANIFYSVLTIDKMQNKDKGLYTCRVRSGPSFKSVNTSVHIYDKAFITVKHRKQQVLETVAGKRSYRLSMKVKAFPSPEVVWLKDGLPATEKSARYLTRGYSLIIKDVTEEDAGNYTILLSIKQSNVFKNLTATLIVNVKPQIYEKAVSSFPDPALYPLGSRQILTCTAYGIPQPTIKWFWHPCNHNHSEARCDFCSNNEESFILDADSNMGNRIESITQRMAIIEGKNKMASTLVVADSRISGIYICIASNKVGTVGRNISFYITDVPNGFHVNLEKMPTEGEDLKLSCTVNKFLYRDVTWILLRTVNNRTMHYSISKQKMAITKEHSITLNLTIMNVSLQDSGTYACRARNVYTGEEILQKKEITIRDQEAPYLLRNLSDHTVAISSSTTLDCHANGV

B1: anti-Flt1-EBPP[A1G4I1]6 (designed binder)
chain: GNQWFIVPAGGVPAAGVPAGGVPAGGVPAIGVPAGGVPAGGVPAAGVPAGGVPAGGVPAIGVPAGGVPAGGVPAAGVPAGGVPAGGVPAIGVPAGGVPAGGVPAAGVPAGGVPAGGVPAIGVPAGGVPAGGVPAAGVPAGGVPAGGVPAIGVPAGGVPAGGVPAAGVPAGGVPAGGVPAIGVPAGG
B2: anti-Flt1-EBPP[A1G4I1]12 (designed binder)
chain: GNQWFIVPAGGVPAAGVPAGGVPAGGVPAIGVPAGGVPAGGVPAAGVPAGGVPAGGVPAIGVPAGGVPAGGVPAAGVPAGGVPAGGVPAIGVPAGGVPAGGVPAAGVPAGGVPAGGVPAIGVPAGGVPAGGVPAAGVPAGGVPAGGVPAIGVPAGGVPAGGVPAAGVPAGGVPAGGVPAIGVPAGGVPAGGVPAAGVPAGGVPAGGVPAIGVPAGGVPAGGVPAAGVPAGGVPAGGVPAIGVPAGGVPAGGVPAAGVPAGGVPAGGVPAIGVPAGGVPAGGVPAAGVPAGGVPAGGVPAIGVPAGGVPAGGVPAAGVPAGGVPAGGVPAIGVPAGGVPAGGVPAAGVPAGGVPAGGVPAIGVPAGG
B3: anti-Flt1-EBPP[A1G4I1]24 (designed binder)
chain: GNQWFIVPAGGVPAAGVPAGGVPAGGVPAIGVPAGGVPAGGVPAAGVPAGGVPAGGVPAIGVPAGGVPAGGVPAAGVPAGGVPAGGVPAIGVPAGGVPAGGVPAAGVPAGGVPAGGVPAIGVPAGGVPAGGVPAAGVPAGGVPAGGVPAIGVPAGGVPAGGVPAAGVPAGGVPAGGVPAIGVPAGGVPAGGVPAAGVPAGGVPAGGVPAIGVPAGGVPAGGVPAAGVPAGGVPAGGVPAIGVPAGGVPAGGVPAAGVPAGGVPAGGVPAIGVPAGGVPAGGVPAAGVPAGGVPAGGVPAIGVPAGGVPAGGVPAAGVPAGGVPAGGVPAIGVPAGGVPAGGVPAAGVPAGGVPAGGVPAIGVPAGGVPAGGVPAAGVPAGGVPAGGVPAIGVPAGGVPAGGVPAAGVPAGGVPAGGVPAIGVPAGGVPAGGVPAAGVPAGGVPAGGVPAIGVPAGGVPAGGVPAAGVPAGGVPAGGVPAIGVPAGGVPAGGVPAAGVPAGGVPAGGVPAIGVPAGGVPAGGVPAAGVPAGGVPAGGVPAIGVPAGGVPAGGVPAAGVPAGGVPAGGVPAIGVPAGGVPAGGVPAAGVPAGGVPAGGVPAIGVPAGGVPAGGVPAAGVPAGGVPAGGVPAIGVPAGGVPAGGVPAAGVPAGGVPAGGVPAIGVPAGGVPAGGVPAAGVPAGGVPAGGVPAIGVPAGGVPAGGVPAAGVPAGGVPAGGVPAIGVPAGG
B4: anti-Flt1-EBPP[A1G4I1]3 (designed binder)
chain: GNQWFIVPAGGVPAAGVPAGGVPAGGVPAIGVPAGGVPAGGVPAAGVPAGGVPAGGVPAIGVPAGGVPAGGVPAAGVPAGGVPAGGVPAIGVPAGG
B5: anti-Flt1-EBPP[E1G4I1]12-EBPP[G1A3F2]12 (designed binder)
chain: GNQWFIVPAGGVPAEGVPAGGVPAGGVPAIGVPAGGVPAGGVPAEGVPAGGVPAGGVPAIGVPAGGVPAGGVPAEGVPAGGVPAGGVPAIGVPAGGVPAGGVPAEGVPAGGVPAGGVPAIGVPAGGVPAGGVPAEGVPAGGVPAGGVPAIGVPAGGVPAGGVPAEGVPAGGVPAGGVPAIGVPAGGVPAGGVPAEGVPAGGVPAGGVPAIGVPAGGVPAGGVPAEGVPAGGVPAGGVPAIGVPAGGVPAGGVPAEGVPAGGVPAGGVPAIGVPAGGVPAGGVPAEGVPAGGVPAGGVPAIGVPAGGVPAGGVPAEGVPAGGVPAGGVPAIGVPAGGVPAGGVPAEGVPAGGVPAGGVPAIGVPAGGVPAAGVPAFGVPAAGVPAGGVPAAGVPAFGVPAAGVPAFGVPAAGVPAGGVPAAGVPAFGVPAAGVPAFGVPAAGVPAGGVPAAGVPAFGVPAAGVPAFGVPAAGVPAGGVPAAGVPAFGVPAAGVPAFGVPAAGVPAGGVPAAGVPAFGVPAAGVPAFGVPAAGVPAGGVPAAGVPAFGVPAAGVPAFGVPAAGVPAGGVPAAGVPAFGVPAAGVPAFGVPAAGVPAGGVPAAGVPAFGVPAAGVPAFGVPAAGVPAGGVPAAGVPAFGVPAAGVPAFGVPAAGVPAGGVPAAGVPAFGVPAAGVPAFGVPAAGVPAGGVPAAGVPAFGVPAAGVPAFGVPAAGVPAGGVPAAGVPAFG
B6: anti-Flt1-EBPP[E1G4I1]12-EBPP[G1A3F2]24 (designed binder)
chain: GNQWFIVPAGGVPAEGVPAGGVPAGGVPAIGVPAGGVPAGGVPAEGVPAGGVPAGGVPAIGVPAGGVPAGGVPAEGVPAGGVPAGGVPAIGVPAGGVPAGGVPAEGVPAGGVPAGGVPAIGVPAGGVPAGGVPAEGVPAGGVPAGGVPAIGVPAGGVPAGGVPAEGVPAGGVPAGGVPAIGVPAGGVPAGGVPAEGVPAGGVPAGGVPAIGVPAGGVPAGGVPAEGVPAGGVPAGGVPAIGVPAGGVPAGGVPAEGVPAGGVPAGGVPAIGVPAGGVPAGGVPAEGVPAGGVPAGGVPAIGVPAGGVPAGGVPAEGVPAGGVPAGGVPAIGVPAGGVPAGGVPAEGVPAGGVPAGGVPAIGVPAGGVPAAGVPAFGVPAAGVPAGGVPAAGVPAFGVPAAGVPAFGVPAAGVPAGGVPAAGVPAFGVPAAGVPAFGVPAAGVPAGGVPAAGVPAFGVPAAGVPAFGVPAAGVPAGGVPAAGVPAFGVPAAGVPAFGVPAAGVPAGGVPAAGVPAFGVPAAGVPAFGVPAAGVPAGGVPAAGVPAFGVPAAGVPAFGVPAAGVPAGGVPAAGVPAFGVPAAGVPAFGVPAAGVPAGGVPAAGVPAFGVPAAGVPAFGVPAAGVPAGGVPAAGVPAFGVPAAGVPAFGVPAAGVPAGGVPAAGVPAFGVPAAGVPAFGVPAAGVPAGGVPAAGVPAFGVPAAGVPAFGVPAAGVPAGGVPAAGVPAFGVPAAGVPAFGVPAAGVPAGGVPAAGVPAFGVPAAGVPAFGVPAAGVPAGGVPAAGVPAFGVPAAGVPAFGVPAAGVPAGGVPAAGVPAFGVPAAGVPAFGVPAAGVPAGGVPAAGVPAFGVPAAGVPAFGVPAAGVPAGGVPAAGVPAFGVPAAGVPAFGVPAAGVPAGGVPAAGVPAFGVPAAGVPAFGVPAAGVPAGGVPAAGVPAFGVPAAGVPAFGVPAAGVPAGGVPAAGVPAFGVPAAGVPAFGVPAAGVPAGGVPAAGVPAFGVPAAGVPAFGVPAAGVPAGGVPAAGVPAFGVPAAGVPAFGVPAAGVPAGGVPAAGVPAFGVPAAGVPAFGVPAAGVPAGGVPAAGVPAFG

These binders were tested against recombinant human Flt1-Fc chimeric protein (human) (UniProt P17948) (assay: competition ELISA (FIG. 11)).

binding, binds:
B1
B2
B3
B4

Each binder was assayed against recombinant human Flt1-Fc chimeric protein (human) (UniProt P17948) (assay: competition ELISA: Flt1-Fc pre-incubated with polypeptide, added to VEGF165-coated wells).

binding, binds:
B1
B2
B3
B4

Each binder was assayed against recombinant human Flt1-Fc chimeric protein (human) (UniProt P17948) (assay: competition ELISA: Flt1-Fc pre-incubated with micelle-forming polypeptide, added to VEGF165-coated wells).

binding, binds:
B5
B6
